Experimental data as given in PMC3107188.
These are yes or no findings as the source states them, for the method shown. In cells and extracts the contact can be indirect. Some results given as binding are weak or reduced against the parent protein; the word gives no strength. Where a sequence is shown, tags or fusion partners need not be part of it.

T1: HA-tagged form of JMJD2C (UniProt Q9H3R0)
T1 sequence: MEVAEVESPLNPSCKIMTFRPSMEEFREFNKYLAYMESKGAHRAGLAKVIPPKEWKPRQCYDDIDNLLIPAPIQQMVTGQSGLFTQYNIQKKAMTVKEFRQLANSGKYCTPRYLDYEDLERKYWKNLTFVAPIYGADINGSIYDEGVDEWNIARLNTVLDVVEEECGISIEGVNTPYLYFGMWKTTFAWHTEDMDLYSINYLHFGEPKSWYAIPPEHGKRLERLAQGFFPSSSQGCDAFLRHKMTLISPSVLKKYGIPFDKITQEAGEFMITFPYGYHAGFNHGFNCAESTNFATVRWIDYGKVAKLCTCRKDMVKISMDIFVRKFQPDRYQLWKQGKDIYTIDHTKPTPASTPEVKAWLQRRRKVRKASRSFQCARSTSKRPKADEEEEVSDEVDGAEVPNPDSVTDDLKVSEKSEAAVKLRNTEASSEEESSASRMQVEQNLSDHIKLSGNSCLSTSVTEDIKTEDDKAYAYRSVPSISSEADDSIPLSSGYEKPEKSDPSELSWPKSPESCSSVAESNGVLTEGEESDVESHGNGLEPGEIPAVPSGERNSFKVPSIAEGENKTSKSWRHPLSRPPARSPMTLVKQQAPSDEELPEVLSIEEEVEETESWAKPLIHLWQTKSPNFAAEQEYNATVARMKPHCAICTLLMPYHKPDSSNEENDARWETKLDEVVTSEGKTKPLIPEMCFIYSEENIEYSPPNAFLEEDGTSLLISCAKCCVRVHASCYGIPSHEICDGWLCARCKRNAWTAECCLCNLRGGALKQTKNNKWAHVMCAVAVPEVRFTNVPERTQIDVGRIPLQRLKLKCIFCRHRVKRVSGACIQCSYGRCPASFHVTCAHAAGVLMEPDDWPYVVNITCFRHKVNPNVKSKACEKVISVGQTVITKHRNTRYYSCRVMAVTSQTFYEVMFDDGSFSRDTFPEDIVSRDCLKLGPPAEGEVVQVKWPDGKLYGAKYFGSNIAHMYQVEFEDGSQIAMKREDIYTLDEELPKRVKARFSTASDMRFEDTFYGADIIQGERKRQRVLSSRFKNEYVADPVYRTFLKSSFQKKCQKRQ


Biological target: T1, HA-tagged form of JMJD2C
Experiment: co-IP; U2OS cells electroporated with untagged FL-JMJD2A or JMJD2A-M584 with HA-JMJD2C; lysed 48 h later in IP buffer (10 mM Tris pH 8, 0.4% NP40, 300 mM NaCl, 10% glycerol, 1 mM DTT), diluted with one volume of buffer with CaCl2 and DNase; anti-HA agarose beads overnight at 4°C; blots with antibodies against HA or JMJD2A

Row | binding | Binder
1 | binds | JMJD2A-M584 (N-terminal deletion mutant of JMJD2A initiating at Met584), untagged (domain or fragment, UniProt Q8BW72-1 584-1064) MLSLEENKKTKGRRQPLSKLPRHHPLVLQECGSDDETSEQLTPEEEAEETEAWAKPLSQLWQNRPPNFEAEKEFNEIMAQQAPHCAVCMIFQTYHQVEFGAFSQSCGDASEPAAQTQRTKPLIPEMCFTTTGCSTDINLSTPYLEEDGTSMLVSCKKCSVRVHASCYGVPPAKASEEWMCSRCSANALEEDCCLCSLRGGALQRANDDRWVHVSCAVAILEARFVNIAERSPVDVSKIPLPRFKLKCVFCKKRRKRNAGCCVQCSHGRCPTAFHVSCAQAAGVMMQPDDWPFVVFITCFRHKIPNLERAKGALLSITAGQKVISKHKNGRFYQCEVVRLTTETFYEVNFDDGSFSDNLYPEDIVSQDCLQLGPPAEGEVVQVRWTDGQVYGAKFVASHPIQMYQVEFEDGSQLVVKRDDVYTLDEELPKRVKSRLSVASDMRFNEIFTEKEVKQEKKRQRVINSRYREDYIEPALYRAIME
2 | binds | FL-JMJD2A (full-length JMJD2A/KDM4A), untagged (protein, UniProt Q8BW72-1 1-1064) MASESETLNPSARIMTFYPTMEEFRNFSRYIAYIESQGAHRAGLAKVVPPKEWKPRTSYDDIDDLVIPAPIQQLVTGQSGLFTQYNIQKKAMTVREFRKIANSDKYCTPRYSEFEELERKYWKNLTFNPPIYGADVNGTLYEQHVDEWNIGRLKTILDLVEKESGITIEGVNTPYLYFGMWKTSFAWHTEDMDLYSINYLHFGEPKSWYSVPPEHGKRLERLAKGFFPGSAQSCEAFLRHKMTLISPLMLKKYGIPFDKVTQEAGEFMITFPYGYHAGFNHGFNCAESTNFATRRWIEYGKQAVLCSCRKDMVKISMDVFVRRFQPERYKLWKAGKDSMVIDHTLPTPEAAEFLKDSGGLTPRAGSEECPEEDVEAADQGEEGDVKRSLAKHRIGTKRHRVCLEIPQEVSQSELFPKEELSSGQYEMTECPATLAPVRPTHSSVRQVEDSLPFPDYSDPTEVKFEELKNVKLEEEDEEDEPEAAALDLSVNPASVGGRLVFSGSKKKSSSSLGSTSSQDSVSSDSETAESVSCQGQEKTGVLTVHSYARGDGKAATGEPSVKKKRSAPRSISEQELAEVADEYMLSLEENKKTKGRRQPLSKLPRHHPLVLQECGSDDETSEQLTPEEEAEETEAWAKPLSQLWQNRPPNFEAEKEFNEIMAQQAPHCAVCMIFQTYHQVEFGAFSQSCGDASEPAAQTQRTKPLIPEMCFTTTGCSTDINLSTPYLEEDGTSMLVSCKKCSVRVHASCYGVPPAKASEEWMCSRCSANALEEDCCLCSLRGGALQRANDDRWVHVSCAVAILEARFVNIAERSPVDVSKIPLPRFKLKCVFCKKRRKRNAGCCVQCSHGRCPTAFHVSCAQAAGVMMQPDDWPFVVFITCFRHKIPNLERAKGALLSITAGQKVISKHKNGRFYQCEVVRLTTETFYEVNFDDGSFSDNLYPEDIVSQDCLQLGPPAEGEVVQVRWTDGQVYGAKFVASHPIQMYQVEFEDGSQLVVKRDDVYTLDEELPKRVKSRLSVASDMRFNEIFTEKEVKQEKKRQRVINSRYREDYIEPALYRAIME
